In PubChem BioAssay AID662 (National Center for Advancing Translational Sciences (NCATS), 2007) one finds AC50 data, which are given here for 42 molecules.

The other results are listed elsewhere or left out. Shown are side measurements of this screen, not its main read-out; they come without a call. Compounds called inactive in the main read-out are mostly missing here. Words in brackets tell the shape of the fitted curve; partial curves, single points and poor fits give uncertain potencies.

Usually AC50 stands for the midpoint of the concentration-response curve, whichever way the signal moves.

The nature of this assay: Cell signaling CRE-BLA (Fsk stim). The conditions noted are these: CHO CRE-bla reporter (cAMP response element driving beta-lactamase), forskolin EC10, beta-lactamase ratio; measured here: 460 nm blue channel. An outline of the steps:
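CRE-bla CHO cells stimulated with EC10 NKH 477 (water-soluble forskolin) and compound titrations, 3 h at 37C; beta-lactamase read with CCF4 after 2 h at room temperature. Activity from 460/530 nm emission ratio, AC50 values for positive or negative modulation.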
For `O=C(Nc1ncnc2c1ncn2C1OC(COC(=O)c2ccccc2)C(F)C1O)c1ccccc1` (configuration not stated), the AC50 is 0.00794 µM [rising, full curve, poor fit].
As for `CC(NC(=O)c1cccc(N2CCCC2=O)c1)c1ccc2c(c1)OCCO2` (configuration not stated), the figure is 25.1 µM [falling, single point]; as for `CC(C)C(=O)N(c1ccc2oc(=O)sc2c1)S(=O)(=O)c1cccs1`, 3.16 µM [rising, single point].
As for `O=C(NC1CCCc2ccccc21)C1CCN(S(=O)(=O)c2cnc[nH]2)CC1` (configuration not stated), the figure is 0.00316 µM [falling, full curve, poor fit]; as for `O=C(c1ccc(C(=O)N2CCOCC2)nc1)N1CCOCC1`, 12.6 µM [rising, single point].
As for `CCn1nnc(NC(=O)CSc2ccc(Cl)cc2)n1`, the figure is 0.794 µM [rising, full curve, poor fit]; as for `COc1ccc(-c2cc(C(=O)N(C)Cc3ccccc3)no2)cc1OC`, 10 µM [rising, partial curve]; as for `Cc1ccc2nc(N3CCN(Cc4nnnn4Cc4ccccc4)CC3)c(C#N)cc2c1`, 12.6 µM [rising, partial curve].
Turning to `Cc1ccc(NC(=O)c2cccc(N(C)C)c2)cc1NC(=O)c1ccc(O)cc1`, the AC50 was 10 µM [falling, partial curve, poor fit].
For the molecule `CCOC(=O)c1[nH]c2ccc(F)cc2c1NC(=O)CN1CCN(C/C=C/c2ccccc2)CC1`, the AC50 was 12.6 µM [rising, partial curve].
As for `O=C(NC1CC2CCC1C2)C1CCN(S(=O)(=O)c2ccc(-c3nn[nH]n3)cc2)CC1` (configuration not stated), the figure is 3.98 µM [falling, single point]; as for `O=C1CC(c2nc3ccccc3[nH]2)CN1c1cccc(C(F)(F)F)c1` (configuration not stated), 15.8 µM [rising, partial curve]; as for `COc1cc(NC(=O)CSc2nnc3n2C(C)(C)Cc2ccccc2-3)cc(OC)c1`, 31.6 µM [falling, single point].
For `Nc1c2c(nc3ccccc13)CCCC2`, the AC50 was 15.8 µM [rising, partial curve, poor fit].
To `C=CCn1c(-c2cc(OC)c(OC)c(OC)c2)n[nH]c1=S` belongs 10 µM [rising, single point]; to `O=C(NCc1ccccn1)Nc1ccc(Cl)c(Cl)c1`, 3.16 µM [rising, single point]; to `CCCNc1nc2c(c(=O)n(C)c(=O)n2C)n1Cc1cccc(C)c1`, 25.1 µM [rising, single point].
As for `COc1ncc2nc(-c3ccc(Cl)cc3)c(=O)n(C)c2n1`, the figure is 20 µM [rising, single point]; as for `O=C1OC(Nc2ccc3c(c2)OCO3)c2ccccc21` (configuration not stated), 10 µM [falling, single point]; as for `CN(C)C(=O)c1ccc(-c2ccc3ncnc(N(C)Cc4ccco4)c3c2)cc1`, 6.31 µM [rising, full curve, poor fit].
As for `CCCCCn1c(=NC(=O)c2ccco2)c(C(=O)OCC)cc2c(=O)n3ccccc3nc21`, the figure is 15.8 µM [rising, partial curve]; as for `COc1ccc(Cn2c(C3CC3)nc3ccc(NC(=O)C4CC4)cc3c2=O)cc1`, 25.1 µM [rising, single point].
For `Cc1ccc(NC(=O)N2CCCC2C(=O)NCCC2=CCCCC2)cc1` (configuration not stated), the AC50 was 3.16 µM [falling, full curve].
To `CN(C)c1cccc2c(S(=O)(=O)Nc3ccccn3)cccc12` belongs 12.6 µM [rising, single point]; to `C1=C(CN2CCOCC2)COc2c1cccc2OC[C@@H]1CNCCO1`, 25.1 µM [falling, single point].
As for `C/C(NC(=O)c1ccccc1)=C1/C(=O)CC2C1C2(C)C` (configuration not stated), the figure is 0.316 µM [rising, partial curve].
In the case of `COc1cccc(C2NC(=O)NC(C)=C2C(=O)Nc2cc(OC)ccc2OC)c1` (configuration not stated), the AC50 was 10 µM [rising, single point].
To `COCCn1c(-c2ccccc2)nc2oc3ccccc3c(=O)c2c1=O` belongs 10 µM [rising, partial curve]; to `CN1CCc2c(sc(/N=C/c3cccs3)c2C(N)=O)C1`, 12.6 µM [rising, partial curve]; to `Cc1ccc2c(c1)[nH]c1c(N3CCN(Cc4ccccc4)CC3)ncnc12`, 15.8 µM [falling, partial curve].
As to `CC(=O)c1ccc(OCCCC(=O)OCc2nnc(-c3ccc(Cl)cc3)o2)cc1`, the AC50 was 0.316 µM [falling, partial curve].
As for `O=c1cc(-c2ccccc2)oc2cc(O)cc(O)c12`, the figure is 10 µM [falling, single point].
To `CCn1c2ccccc2c2cc(C3C(C#N)=C(N)Oc4n[nH]c(COC)c43)ccc21` (configuration not stated) belongs 12.6 µM [rising, partial curve].
As for `O=C(O)CCC(=O)N1CCc2cc(S(=O)(=O)N3CCCCC3)ccc21`, the figure is 0.1 µM [falling, full curve, poor fit]; as for `CS(=O)(=O)N(CC(=O)Nc1cccnc1)c1ccc2c(c1)OCCO2`, 25.1 µM [rising, single point].
With `CN1CCN(c2ncnc3ccc(-c4cccc(C#N)c4)cc23)CC1`, the AC50 was 12.6 µM [rising, partial curve].
As for `CCNc1nc2c(c(=O)[nH]c(=O)n2C)n1Cc1ccc(F)cc1`, the figure is 7.94 µM [rising, partial curve]; as for `CSc1ncnc2c1ncn2CC(=O)[C@H]1CC[C@H]2[C@H]3CCC4=CC(=O)CC[C@@]4(C)[C@@H]3CC[C@@]12C`, 5.01 µM [rising, single point]; as for `Cc1nc2ccccc2c2oc(C(=O)N3CCN(C4CCCCC4)CC3)cc12`, 12.6 µM [rising, partial curve].
As for `O=c1[nH]c(C2CCCN(S(=O)(=O)c3ccc(F)cc3)C2)nc2c1nnn2Cc1ccccc1` (configuration not stated), the figure is 10 µM [rising, partial curve]; as for `N#Cc1cccc(NC(=O)N2CCC(c3nc4c(nnn4Cc4cccc(Cl)c4)c(=O)[nH]3)CC2)c1`, 0.00316 µM [rising, full curve, poor fit].
As to `O=C(CCCCCn1c(SCC(=O)c2ccccc2)nc2ccccc2c1=O)NCc1ccco1`, the AC50 was 3.98 µM [rising, full curve, poor fit].
